Experimental data reported in paper PMC9724678.
These are yes or no findings as the source states them, for the method shown. In cells and extracts the contact can be indirect. Here binding means that the protein was enriched with, or labelled near, the bait; the list need not be complete.

By UniProt entry, the sequences of proteins in these tests, tags left out. Residues count along the entry.
UniProt Q93050: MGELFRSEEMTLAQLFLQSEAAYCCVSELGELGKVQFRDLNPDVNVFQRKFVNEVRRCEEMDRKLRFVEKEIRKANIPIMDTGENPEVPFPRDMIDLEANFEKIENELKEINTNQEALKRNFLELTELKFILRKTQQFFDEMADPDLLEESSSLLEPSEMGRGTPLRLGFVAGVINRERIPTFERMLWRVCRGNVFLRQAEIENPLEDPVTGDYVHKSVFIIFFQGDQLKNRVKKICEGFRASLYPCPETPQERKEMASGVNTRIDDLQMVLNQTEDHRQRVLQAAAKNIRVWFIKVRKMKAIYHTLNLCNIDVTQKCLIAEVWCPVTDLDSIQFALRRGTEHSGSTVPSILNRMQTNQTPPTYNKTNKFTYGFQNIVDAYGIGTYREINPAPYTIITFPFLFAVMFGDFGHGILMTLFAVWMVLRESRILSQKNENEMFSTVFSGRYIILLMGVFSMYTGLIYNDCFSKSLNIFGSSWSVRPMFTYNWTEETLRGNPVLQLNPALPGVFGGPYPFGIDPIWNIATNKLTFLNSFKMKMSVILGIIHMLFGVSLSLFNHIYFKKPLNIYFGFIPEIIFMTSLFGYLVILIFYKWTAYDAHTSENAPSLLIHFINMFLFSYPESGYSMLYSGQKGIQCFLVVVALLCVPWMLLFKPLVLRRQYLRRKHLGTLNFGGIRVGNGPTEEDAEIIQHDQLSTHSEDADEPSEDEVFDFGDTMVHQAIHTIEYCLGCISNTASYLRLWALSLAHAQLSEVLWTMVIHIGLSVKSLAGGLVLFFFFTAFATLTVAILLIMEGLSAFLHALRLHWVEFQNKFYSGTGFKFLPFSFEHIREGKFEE
UniProt P53618: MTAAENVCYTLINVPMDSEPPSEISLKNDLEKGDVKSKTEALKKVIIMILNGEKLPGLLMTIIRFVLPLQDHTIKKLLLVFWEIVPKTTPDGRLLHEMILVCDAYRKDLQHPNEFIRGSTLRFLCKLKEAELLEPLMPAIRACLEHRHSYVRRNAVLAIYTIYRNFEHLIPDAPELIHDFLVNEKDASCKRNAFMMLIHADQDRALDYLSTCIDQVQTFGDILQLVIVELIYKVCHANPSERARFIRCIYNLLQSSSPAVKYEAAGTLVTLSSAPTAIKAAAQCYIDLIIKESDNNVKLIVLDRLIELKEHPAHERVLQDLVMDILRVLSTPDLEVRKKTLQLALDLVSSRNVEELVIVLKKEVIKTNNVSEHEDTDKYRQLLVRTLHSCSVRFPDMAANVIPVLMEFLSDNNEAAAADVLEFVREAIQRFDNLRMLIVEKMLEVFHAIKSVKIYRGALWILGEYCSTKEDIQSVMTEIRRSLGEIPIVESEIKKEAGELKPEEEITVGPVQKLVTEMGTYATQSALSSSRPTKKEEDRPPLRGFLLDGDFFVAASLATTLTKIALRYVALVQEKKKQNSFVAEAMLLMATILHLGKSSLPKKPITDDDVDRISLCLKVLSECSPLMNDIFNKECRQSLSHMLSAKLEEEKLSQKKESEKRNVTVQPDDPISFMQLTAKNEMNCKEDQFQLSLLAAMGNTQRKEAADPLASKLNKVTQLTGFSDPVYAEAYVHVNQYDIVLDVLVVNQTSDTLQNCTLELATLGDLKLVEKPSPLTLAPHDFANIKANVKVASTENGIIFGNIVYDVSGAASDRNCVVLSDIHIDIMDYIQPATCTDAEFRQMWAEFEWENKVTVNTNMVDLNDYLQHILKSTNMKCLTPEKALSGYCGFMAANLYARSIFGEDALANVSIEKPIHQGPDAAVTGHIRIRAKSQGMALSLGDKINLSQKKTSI
UniProt P27824, residues 21-592: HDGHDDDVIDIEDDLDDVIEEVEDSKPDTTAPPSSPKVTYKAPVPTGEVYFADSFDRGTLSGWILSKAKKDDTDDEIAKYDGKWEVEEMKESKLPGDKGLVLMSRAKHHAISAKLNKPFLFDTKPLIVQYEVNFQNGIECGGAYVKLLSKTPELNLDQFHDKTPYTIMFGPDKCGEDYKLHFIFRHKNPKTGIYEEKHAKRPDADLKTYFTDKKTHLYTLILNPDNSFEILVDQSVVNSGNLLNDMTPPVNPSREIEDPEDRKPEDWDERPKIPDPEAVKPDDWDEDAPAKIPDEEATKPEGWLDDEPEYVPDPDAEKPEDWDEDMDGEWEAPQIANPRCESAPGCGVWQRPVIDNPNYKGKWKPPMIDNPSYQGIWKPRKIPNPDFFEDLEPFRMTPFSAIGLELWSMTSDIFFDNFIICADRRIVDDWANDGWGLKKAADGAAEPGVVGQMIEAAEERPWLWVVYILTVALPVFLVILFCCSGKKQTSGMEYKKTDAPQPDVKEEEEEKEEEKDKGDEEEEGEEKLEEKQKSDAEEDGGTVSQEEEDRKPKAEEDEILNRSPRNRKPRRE
UniProt Q8IWV7: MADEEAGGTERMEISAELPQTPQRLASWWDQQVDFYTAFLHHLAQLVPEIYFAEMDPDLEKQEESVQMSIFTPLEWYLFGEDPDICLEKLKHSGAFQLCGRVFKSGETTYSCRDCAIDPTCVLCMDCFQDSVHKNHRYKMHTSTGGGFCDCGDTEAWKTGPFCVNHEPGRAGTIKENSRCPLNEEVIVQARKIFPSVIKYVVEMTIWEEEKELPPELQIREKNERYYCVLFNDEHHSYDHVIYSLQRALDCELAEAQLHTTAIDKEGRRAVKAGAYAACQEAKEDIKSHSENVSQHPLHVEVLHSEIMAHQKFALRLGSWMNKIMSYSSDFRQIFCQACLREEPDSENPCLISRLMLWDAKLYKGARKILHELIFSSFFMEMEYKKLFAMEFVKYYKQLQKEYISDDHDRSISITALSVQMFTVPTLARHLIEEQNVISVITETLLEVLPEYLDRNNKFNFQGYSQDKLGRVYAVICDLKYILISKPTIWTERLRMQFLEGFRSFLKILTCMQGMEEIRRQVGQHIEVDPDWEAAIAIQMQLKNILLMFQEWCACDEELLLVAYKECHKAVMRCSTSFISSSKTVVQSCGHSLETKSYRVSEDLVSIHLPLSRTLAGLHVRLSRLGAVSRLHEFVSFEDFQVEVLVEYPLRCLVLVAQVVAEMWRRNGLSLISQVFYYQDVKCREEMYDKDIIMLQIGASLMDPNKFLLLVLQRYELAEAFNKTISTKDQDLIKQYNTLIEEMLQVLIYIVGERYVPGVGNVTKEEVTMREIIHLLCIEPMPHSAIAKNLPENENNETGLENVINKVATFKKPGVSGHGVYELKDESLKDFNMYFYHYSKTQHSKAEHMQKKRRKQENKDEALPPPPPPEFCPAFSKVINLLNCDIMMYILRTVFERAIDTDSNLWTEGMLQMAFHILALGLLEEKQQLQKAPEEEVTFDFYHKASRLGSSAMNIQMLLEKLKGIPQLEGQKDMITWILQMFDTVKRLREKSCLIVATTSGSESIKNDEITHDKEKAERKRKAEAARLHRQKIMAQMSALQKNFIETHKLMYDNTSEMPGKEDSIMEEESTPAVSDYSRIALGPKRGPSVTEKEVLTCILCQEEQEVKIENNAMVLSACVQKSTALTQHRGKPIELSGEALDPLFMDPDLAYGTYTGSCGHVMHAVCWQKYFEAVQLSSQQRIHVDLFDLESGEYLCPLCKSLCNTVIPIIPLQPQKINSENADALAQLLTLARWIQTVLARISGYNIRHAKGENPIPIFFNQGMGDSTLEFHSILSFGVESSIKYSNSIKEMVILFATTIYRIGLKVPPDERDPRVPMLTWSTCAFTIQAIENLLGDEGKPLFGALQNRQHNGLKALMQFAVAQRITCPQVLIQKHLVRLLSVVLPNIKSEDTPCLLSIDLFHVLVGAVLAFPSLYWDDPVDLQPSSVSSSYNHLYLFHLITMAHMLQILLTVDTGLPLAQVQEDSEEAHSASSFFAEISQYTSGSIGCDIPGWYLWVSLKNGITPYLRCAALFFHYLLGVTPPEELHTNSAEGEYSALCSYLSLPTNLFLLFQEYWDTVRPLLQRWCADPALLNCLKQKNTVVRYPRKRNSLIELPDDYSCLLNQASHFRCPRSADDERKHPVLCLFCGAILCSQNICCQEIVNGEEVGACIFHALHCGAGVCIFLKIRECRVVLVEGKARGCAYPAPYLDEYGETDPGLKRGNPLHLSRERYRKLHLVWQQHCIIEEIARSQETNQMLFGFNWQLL
UniProt Q8IWV8: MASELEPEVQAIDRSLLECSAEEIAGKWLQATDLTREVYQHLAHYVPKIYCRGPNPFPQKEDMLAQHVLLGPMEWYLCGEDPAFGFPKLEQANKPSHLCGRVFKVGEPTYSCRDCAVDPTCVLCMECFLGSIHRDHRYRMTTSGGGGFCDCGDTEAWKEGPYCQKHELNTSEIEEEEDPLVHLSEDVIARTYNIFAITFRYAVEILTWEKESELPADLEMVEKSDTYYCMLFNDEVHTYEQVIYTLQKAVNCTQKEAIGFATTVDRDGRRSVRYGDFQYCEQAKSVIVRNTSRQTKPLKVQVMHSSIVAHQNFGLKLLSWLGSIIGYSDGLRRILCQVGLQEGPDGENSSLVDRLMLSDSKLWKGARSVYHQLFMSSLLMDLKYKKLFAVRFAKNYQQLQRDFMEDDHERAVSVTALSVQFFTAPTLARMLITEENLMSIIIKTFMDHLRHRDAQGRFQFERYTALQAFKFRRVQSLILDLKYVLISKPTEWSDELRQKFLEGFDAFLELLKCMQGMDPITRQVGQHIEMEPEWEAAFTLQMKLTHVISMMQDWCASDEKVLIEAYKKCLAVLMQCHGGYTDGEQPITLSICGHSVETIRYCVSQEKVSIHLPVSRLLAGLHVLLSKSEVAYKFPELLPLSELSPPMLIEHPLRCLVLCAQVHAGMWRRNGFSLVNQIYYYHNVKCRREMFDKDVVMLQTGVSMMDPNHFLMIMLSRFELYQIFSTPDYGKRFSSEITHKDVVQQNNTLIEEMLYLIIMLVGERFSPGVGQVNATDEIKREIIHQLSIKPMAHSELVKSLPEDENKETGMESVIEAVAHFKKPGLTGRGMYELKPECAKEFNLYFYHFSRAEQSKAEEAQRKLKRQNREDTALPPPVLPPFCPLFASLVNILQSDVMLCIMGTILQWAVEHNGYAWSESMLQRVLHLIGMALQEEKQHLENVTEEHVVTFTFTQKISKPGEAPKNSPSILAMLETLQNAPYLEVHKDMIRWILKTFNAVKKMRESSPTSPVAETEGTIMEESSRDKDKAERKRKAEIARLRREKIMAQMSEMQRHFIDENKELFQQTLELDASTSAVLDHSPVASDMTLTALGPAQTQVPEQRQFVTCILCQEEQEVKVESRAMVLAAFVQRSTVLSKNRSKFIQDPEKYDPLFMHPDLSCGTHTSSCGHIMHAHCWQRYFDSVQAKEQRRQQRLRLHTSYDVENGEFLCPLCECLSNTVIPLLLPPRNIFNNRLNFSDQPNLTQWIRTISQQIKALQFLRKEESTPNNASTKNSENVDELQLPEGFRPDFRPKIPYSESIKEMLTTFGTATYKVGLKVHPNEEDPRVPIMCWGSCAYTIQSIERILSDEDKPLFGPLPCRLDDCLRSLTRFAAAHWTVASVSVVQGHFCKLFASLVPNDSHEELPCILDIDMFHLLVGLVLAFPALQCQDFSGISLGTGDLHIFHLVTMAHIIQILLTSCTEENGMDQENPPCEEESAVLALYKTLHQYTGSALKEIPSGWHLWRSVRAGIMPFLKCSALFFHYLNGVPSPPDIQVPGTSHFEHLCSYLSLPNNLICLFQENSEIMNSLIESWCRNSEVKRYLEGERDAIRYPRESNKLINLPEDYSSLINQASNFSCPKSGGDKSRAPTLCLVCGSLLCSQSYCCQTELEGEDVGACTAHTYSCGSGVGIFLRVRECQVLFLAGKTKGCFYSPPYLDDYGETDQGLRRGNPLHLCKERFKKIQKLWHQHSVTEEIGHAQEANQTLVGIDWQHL
UniProt Q9UHD2: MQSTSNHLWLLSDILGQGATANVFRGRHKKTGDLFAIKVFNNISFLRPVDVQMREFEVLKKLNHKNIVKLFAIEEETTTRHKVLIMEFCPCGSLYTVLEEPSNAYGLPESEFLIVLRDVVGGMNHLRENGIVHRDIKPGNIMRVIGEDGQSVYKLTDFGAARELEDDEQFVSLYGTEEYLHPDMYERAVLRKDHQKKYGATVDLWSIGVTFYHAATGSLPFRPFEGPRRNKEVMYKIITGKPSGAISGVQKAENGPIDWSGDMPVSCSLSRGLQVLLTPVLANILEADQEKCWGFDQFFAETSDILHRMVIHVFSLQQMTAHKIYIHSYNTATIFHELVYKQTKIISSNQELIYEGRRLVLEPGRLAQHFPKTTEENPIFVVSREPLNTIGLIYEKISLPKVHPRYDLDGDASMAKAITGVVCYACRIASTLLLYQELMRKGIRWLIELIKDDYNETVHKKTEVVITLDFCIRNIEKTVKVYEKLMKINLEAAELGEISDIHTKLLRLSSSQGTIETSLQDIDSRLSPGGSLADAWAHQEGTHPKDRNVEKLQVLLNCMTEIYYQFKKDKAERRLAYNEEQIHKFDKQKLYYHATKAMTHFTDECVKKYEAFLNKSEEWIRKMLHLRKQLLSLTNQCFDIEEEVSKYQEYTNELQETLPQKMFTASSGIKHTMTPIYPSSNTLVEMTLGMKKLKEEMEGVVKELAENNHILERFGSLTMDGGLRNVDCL

Each substance was assayed against GFP-T6BP (TAX1BP1 / TRAF6-binding protein fused to GFP) (UniProt Q86VP1) (assay: affinity purification with mass spectrometry; GFP-T6BP or GFP alone from transfected HeLa-CIITA lysate (1% Triton X-100 buffer) on GFP-Trap agarose magnetic beads, 1 h 4°C, on-bead digestion, LC-MS/MS; three biological replicates; fold change ≥10, SAINT ≥0,8).

| Substance | binding |
| --- | --- |
| ATP6V0A1, a subunit of the vATPase (from UniProt Q93050 1-837) | binds |
| BAG6 (from UniProt P46379 1-1132) | binds |
| COPB1 (from UniProt P53618 1-953) | binds |
| Calnexin (CANX), endogenous (from UniProt P27824 21-592) | binds |
| E3 Ub-ligase UBR1 (from UniProt Q8IWV7 1-1749) | binds |
| E3 Ub-ligase UBR2 (from UniProt Q8IWV8 1-1755) | binds |
| E3 Ub-ligase UBR4 (from UniProt Q5T4S7 1-5183) | binds |
| autophagy receptor p62 (SQSTM1, Sequestosome-1) (from UniProt Q13501 1-440) | binds |
| kinase TBK1 (TANK-binding kinase-1) (from UniProt Q9UHD2 1-729) | binds |
